Our source for the T/C and survivor count values is PubChem BioAssay AID330 (DTP/NCI, 2004).

The list is a part of this screen's results and no random one: it gathers tests that were run many times, whatever their T/C, doses with no T/C, and many T/C values between a quarter and a half above the control. Other doses and runs of a compound stand elsewhere. T/C is the treated group as % of the vehicle group. Some entries give survivors of the animals treated and no T/C: the source holds a T/C of zero for them, seemingly a mark for toxic or unscored doses. Some survivor counts are full or nearly so, which does not show that the dose was tolerated: the source hardly ever lists a survival T/C far under the control, and the zero likely stands for such cases as well. Survivors were counted at the toxicity check, usually on the fifth day, unless a day is given; later deaths do not show. Schedules are NCI's codes, read here as Q, the interval in days (D) or hours (H), X, the number of doses. Some structures stand for samples that the source files as different forms (salt, stereo form or complex); doses refer to the form tested. Some doses were run more than once; the results are listed from low to high. For survival time, the PubChem record calls one and a half times the control and up active, and a quarter to a half above the control has no call in these data; cut-offs in other NCI protocols can differ. Signs of the kind (2×) say how often a value occurs here. Some T/C values are followed by the survivors on the day toxicity was checked, most often the fifth; without a count, all were alive then.

The assay concerns P388 leukemia ip, CD2F1 mice, survival T/C. Put plainly: NCI In Vivo Anticancer Drug Screen. Data for tumor model P388 Leukemia (intraperitoneal) in CD2F1 (CDF1) mice. As to conditions: T/C endpoint: median survival time, higher T/C = longer survival.
[1] abbreviates: dose: 100.0 mg/kg/injection, schedule: Q01DX009 (ip), vehicle: saline with Tween-80.
Setting [2] is: dose: 200.0 mg/kg/injection, schedule: Q01DX009 (ip), vehicle: saline with Tween-80.
Setting [3] is: dose: 200.0 mg/kg/injection, schedule: Q04DX003 (ip), vehicle: saline with Tween-80.
Setting [4] is: dose: 30.0 mg/kg/injection, schedule: Q01DX009 (ip), vehicle: saline with Tween-80.

For the compound `CCCCCCCCCCCCCS`, the T/C reads like this: (dose: 66.0 mg/kg/injection, schedule: Q01DX009 (ip), vehicle: saline with Tween-80) 127 % of control; under setting [1], 131 and 131 % of control [5 of 6 alive]; (dose: 100.0 mg/kg/injection, schedule: Q04DX003 (ip), vehicle: saline with Tween-80) 131 % of control; under setting [3], 131 % of control. In addition, the survivor count is, setting by setting: (dose: 150.0 mg/kg/injection, schedule: Q01DX009 (ip), vehicle: saline with Tween-80) 3 of 6; under setting [2], 1 of 6; under setting [3], 2 of 6; (dose: 300.0 mg/kg/injection, schedule: Q04DX003 (ip), vehicle: saline with Tween-80) 5 of 6; (dose: 400.0 mg/kg/injection, schedule: Q04DX003 (ip), vehicle: saline with Tween-80) 5 of 6.

Turning to `C[C@]12CC[C@H]3[C@@H](CCC4=CC(=O)CC[C@@H]43)[C@@H]1CC[C@@H]2OC(=O)N(CCCl)N=O`, the T/C by setting is: (dose: 15.0 mg/kg/injection, schedule: Q01DX009 (ip), vehicle: saline with Tween-80) 134 % of control; under setting [4], 138 % of control; (dose: 60.0 mg/kg/injection, schedule: Q01DX009 (ip), vehicle: saline with Tween-80) 137 % of control; (dose: 120.0 mg/kg/injection, schedule: Q04DX003 (ip), vehicle: saline) 126 % of control. Besides, the survivor count runs as follows: (dose: 50.0 mg/kg/injection, schedule: Q01DX009 (ip), vehicle: other) 3 of 6; (dose: 50.0 mg/kg/injection, schedule: Q01DX009 (ip), vehicle: saline with Tween-80) 6 of 6; (dose: 100.0 mg/kg/injection, schedule: Q01DX005 (ip), vehicle: other) 1 of 6; under setting [1], 6 of 6; under setting [2], 6 of 6.

Regarding `O=c1[nH]cnc2[nH]ccc12`, the survivor count under setting [1] was 6 of 6; the survivor count under setting [2] is 1 of 6; the survivor count (dose: 400.0 mg/kg/injection, schedule: Q01DX009 (ip), vehicle: saline with Tween-80) is listed as 0 of 6.

For `CCCCCCCCCCCCCCCC(=O)NCC(=O)NC1CC(OC2CC(O)(C(C)=O)Cc3c(O)c4c(c(O)c32)C(=O)c2c(OC)cccc2C4=O)OC(C)C1O` (stereo unspecified), the T/C was 131 % of control (dose: 6.0 mg/kg/injection, schedule: Q01DX009 (ip), vehicle: other) and 135 % of control (dose: 12.0 mg/kg/injection, schedule: Q01DX009 (ip), vehicle: other).

As for `CCN(CC)CCCCCCCCOC(=O)c1cc(OC)c(OC)c(OC)c1`, the survivor count is 0 of 6 (dose: 120.0 mg/kg/injection, schedule: Q01DX005 (ip), vehicle: saline) and 0 of 6 (dose: 240.0 mg/kg/injection, schedule: Q01DX005 (ip), vehicle: saline).

Consider `Nc1ncnc2c1ncn2C(C=O)OC(C=O)CO` (stereo unspecified), for which the T/C is, setting by setting: (dose: 10.0 mg/kg/injection, schedule: Q04DX003 (ip), vehicle: saline) 131 % of control; (dose: 15.0 mg/kg/injection, schedule: Q04DX003 (ip), vehicle: saline) 127 % of control [5 of 6 alive]; (dose: 18.7 mg/kg/injection, schedule: Q04DX003 (ip), vehicle: saline) 140 % of control. The survivor count (dose: 50.0 mg/kg/injection, schedule: Q01DX009 (ip), vehicle: saline) is recorded as 6 of 6.

With `O=NN(CCCl)C(=O)Oc1ccc(OC(=O)N(CCCl)N=O)cc1`, the T/C by setting is: (dose: 12.5 mg/kg/injection, schedule: Q01DX001 (ip), vehicle: Klucel (hydroxypropylcellulose) (HPC)) 128 % of control; (dose: 25.0 mg/kg/injection, schedule: Q01DX001 (ip), vehicle: Klucel (hydroxypropylcellulose) (HPC)) 125 and 135 % of control. For the same compound, where the note is “dose: 100.0 mg/kg/injection, schedule: Q01DX001 (ip), vehicle: Klucel (hydroxypropylcellulose) (HPC)”, the survivor count is given as 2 of 6.

For the compound `Cc1c2cc[n+](C)cc2c(C)c2c1[nH]c1ccccc12`, the T/C is, setting by setting: (dose: 3.12 mg/kg/injection, schedule: Q04DX002 (ip), vehicle: distilled water + Tween-80) 133 % of control; (dose: 5.0 mg/kg/injection, schedule: Q04DX002 (ip), vehicle: water) 130 and 138 % of control; (dose: 6.25 mg/kg/injection, schedule: Q04DX002 (ip), vehicle: distilled water + Tween-80) 126 % of control (2×); (dose: 10.0 mg/kg/injection, schedule: Q04DX002 (ip), vehicle: water) 134 and 144 % of control; (dose: 12.5 mg/kg/injection, schedule: Q04DX002 (ip), vehicle: distilled water + Tween-80) 138 % of control; (dose: 20.0 mg/kg/injection, schedule: Q04DX002 (ip), vehicle: water) 137 [5 of 6 alive] and 145 % of control. The T/C (dose: 25.0 mg/kg/injection, schedule: Q04DX002 (ip), vehicle: distilled water + Tween-80) was 125 and 145 % of control. For the same compound, the survivor count is, setting by setting: (dose: 40.0 mg/kg/injection, schedule: Q04DX002 (ip), vehicle: water) 3 of 6 and 5 of 6; (dose: 50.0 mg/kg/injection, schedule: Q04DX002 (ip), vehicle: distilled water + Tween-80) 4 of 6 and 6 of 6; (dose: 80.0 mg/kg/injection, schedule: Q04DX002 (ip), vehicle: water) 1 of 6; (dose: 100.0 mg/kg/injection, schedule: Q04DX002 (ip), vehicle: distilled water + Tween-80) 4 of 6; (dose: 200.0 mg/kg/injection, schedule: Q04DX002 (ip), vehicle: distilled water + Tween-80) 0 of 6.

On to `CNCC1c2ccccc2CSc2c(OC)cccc21` (stereo unspecified), for which the survivor count by setting is: (dose: 50.0 mg/kg/injection, schedule: Q01DX005 (ip), vehicle: Klucel (hydroxypropylcellulose) (HPC)) 3 of 6; (dose: 100.0 mg/kg/injection, schedule: Q01DX005 (ip), vehicle: Klucel (hydroxypropylcellulose) (HPC)) 0 of 6; (dose: 200.0 mg/kg/injection, schedule: Q01DX005 (ip), vehicle: Klucel (hydroxypropylcellulose) (HPC)) 0 of 6.

Take `C[n+]1ccc(/C=C/c2ccccc2O)cc1`: the survivor count (dose: 200.0 mg/kg/injection, schedule: Q01DX009 (ip), vehicle: saline) is listed as 0 of 6.

As to `COc1cc2c[n+](C)c(-c3ccc(Cl)c(Cl)c3)c(OC)c2cc1OC`, the survivor count (dose: 100.0 mg/kg/injection, schedule: Q04DX003 (ip), vehicle: suspension in saline) was 0 of 6; the survivor count (dose: 200.0 mg/kg/injection, schedule: Q04DX003 (ip), vehicle: suspension in saline) was 0 of 6; the survivor count (dose: 400.0 mg/kg/injection, schedule: Q04DX003 (ip), vehicle: suspension in saline) is reported as 0 of 6.

For `CCS/C(N)=C(\C#N)C(SCC)(SCC)SCC`, the survivor count (dose: 200.0 mg/kg/injection, schedule: Q04DX003 (ip), vehicle: saline) was 0 of 6.

For the compound `O=P(c1ccccc1)(c1ccccc1)c1ccccc1.O=P(c1ccccc1)(c1ccccc1)c1ccccc1.O=S(=O)(O)O.[Ni]`, the survivor count (dose: 50.0 mg/kg/injection, schedule: Q01DX009 (ip), vehicle: Klucel (hydroxypropylcellulose) (HPC)) is 6 of 6; the survivor count (dose: 100.0 mg/kg/injection, schedule: Q01DX009 (ip), vehicle: Klucel (hydroxypropylcellulose) (HPC)) is reported as 6 of 6; the survivor count (dose: 200.0 mg/kg/injection, schedule: Q01DX009 (ip), vehicle: Klucel (hydroxypropylcellulose) (HPC)) was 0 of 6.

Consider `CS(=O)(=O)c1nc(N)c2nnn(C3OC(CO)C(O)C3O)c2n1` (stereo unspecified), for which the T/C reads like this: (dose: 25.0 mg/kg/injection, schedule: Q01DX005 (ip), vehicle: saline) 125 % of control; (dose: 50.0 mg/kg/injection, schedule: Q01DX005 (ip), vehicle: saline) 138 % of control; (dose: 100.0 mg/kg/injection, schedule: Q01DX005 (ip), vehicle: saline) 138 % of control (2×); (dose: 200.0 mg/kg/injection, schedule: Q01DX005 (ip), vehicle: saline) 138 % of control; (dose: 400.0 mg/kg/injection, schedule: Q01DX005 (ip), vehicle: saline) 127 % of control.

As to `C=C1C(=O)C23C(OC(=O)c4ccc(Br)cc4)C1CCC2C12COC3(O)C(O)C1C(C)(C)CCC2O` (stereo unspecified), the T/C under setting [4] is 125 % of control.
